From publication PMC10381084 come the findings set out here.

Sequences of proteins named here, by UniProt entry; tags and fusion partners are left off.
UniProt P51140: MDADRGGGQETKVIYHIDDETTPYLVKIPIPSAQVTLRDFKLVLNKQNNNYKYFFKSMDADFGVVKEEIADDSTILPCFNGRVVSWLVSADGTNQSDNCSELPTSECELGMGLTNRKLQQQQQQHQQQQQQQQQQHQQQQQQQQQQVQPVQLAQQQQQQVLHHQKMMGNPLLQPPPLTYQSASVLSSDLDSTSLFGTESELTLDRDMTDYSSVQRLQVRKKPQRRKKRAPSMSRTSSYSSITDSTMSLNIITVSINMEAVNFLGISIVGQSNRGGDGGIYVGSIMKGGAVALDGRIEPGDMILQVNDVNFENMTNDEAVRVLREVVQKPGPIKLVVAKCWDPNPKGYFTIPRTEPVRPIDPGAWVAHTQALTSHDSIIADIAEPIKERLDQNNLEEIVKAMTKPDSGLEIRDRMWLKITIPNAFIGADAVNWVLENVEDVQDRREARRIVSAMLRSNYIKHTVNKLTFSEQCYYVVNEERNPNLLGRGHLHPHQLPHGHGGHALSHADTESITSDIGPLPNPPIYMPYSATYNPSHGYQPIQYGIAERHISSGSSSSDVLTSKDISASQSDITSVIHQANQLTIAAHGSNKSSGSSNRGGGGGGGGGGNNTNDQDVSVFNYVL

These are yes or no findings as the source states them, for the method shown. Binding seen in cells or lysates may run through a third protein. Some results given as binding are weak or reduced against the parent protein; the word gives no strength.

In this test the target is T1, pY-peptide (Vang 367–381, phosphorylated at Y374) (Drosophila).
T1 sequence (peptide, phosphotyrosine at Y374 ([pY]); C-terminal amide): ISNSFKYYEVDGVSN
Nature of the test: pull-down; competitive binding: Dsh-GFP mixed in solution with increasing levels of Pk on beads coupled with the pY or the Y peptide; retention of Dsh-GFP on the beads by Western blot; only the target purified. On the technique in general: In western blotting, separated proteins are transferred to a membrane and probed.

As for “Dsh-GFP (Drosophila Dishevelled) (from UniProt P51140 1-623)”, the binding result is listed as “binds”.
